Source: PubChem BioAssay AID624297 (National Center for Advancing Translational Sciences (NCATS), 2012)
About 6,200 (1.8%) of roughly 340,000 compounds were called active. The shares of active, inactive and inconclusive entries below differ from those in the screen. Calls come from the whole dose curve; as a rule, active = well fitted activation curve with a large enough effect; inconclusive = small, poorly fitted or top-dose-only effect; inactive = no such curve, though single readings can be large or run the other way. Potencies beside an inconclusive call are fits to weak or partial responses and may not hold up.

Experiment: A quantitative high throughput screen for small molecules that induce DNA re-replication in SW480 colon adenocarcinoma cells. For re-replication activation: % of control where 0% means no effect. Note: nearly all actives have a fitted effect of over 55% in size.
Settings: Hoechst DNA content imaging, 48 h; re-replication activation: at 46.1 µM (top of the series) unless noted
Procedure, shortened: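 Quantitative HTS format with DMSO vehicle controls; 48 hr drug incubation at 37 C, then 40 min Hoechst staining and scanning imager measurement at 405 nm excitation.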
Potency is the fitted concentration of half-maximal effect.

| Structure (SMILES) | Potency | re-replication activation |
| --- | --- | --- |
| COc1ccc(Cc2nnc(NC(=O)Nc3ccccc3)s2)cc1OC | inconclusive: 32.6 µM [activator, partial curve, poor fit] |  |
| CCOc1ccc(C(C(=O)NCC2CCCO2)N(C(=O)c2snc(C(N)=O)c2N)c2ccc(F)cc2)cc1 (stereo not given) |  | inactive: 17.7% |
| Cc1ccc(C(=O)Nc2cccc(C(=O)NC3CCCC3)c2)cc1 |  | inactive: 4.03% |
| Cc1ccc(C)c(NC(=O)CN(C)C(=O)CN2C(=O)NC3(CCc4ccccc43)C2=O)c1 (stereo not given) |  | inactive: -5.31% |
| CCCCCCCCNC(=O)CC(NS(=O)(=O)c1ccc(NC(C)=O)cc1)C(C)C (stereo not given) | inconclusive: 29.1 µM [activator, single point] |  |
| Cc1ccc(CNS(=O)(=O)c2ccc3c(c2)N(C)CCO3)cc1 | inconclusive: 18.4 µM [activator, partial curve, poor fit] |  |
| Cc1cccc(-n2c(C)cc(/C=C3\NC(=O)NC3=O)c2C)c1 | inconclusive: 16.4 µM [activator, single point] |  |
| CCN(CC)C(=O)[C@H]1C[C@H](CC(=O)NCCC2=CCCCC2)C(=O)N2CCc3c([nH]c4ccc(Cl)cc34)[C@]12C | inconclusive: 29.1 µM [activator, single point] |  |
| CCOc1nc(-c2ccccc2)c2cc(Br)ccc2n1 |  | inactive: -8.74% |
| Cc1c(C)n2c(SCC(=O)Nc3cccc4ccccc34)nnc2[nH]c1=O | active: 23.1 µM |  |
| CCCc1c(OCCCOc2ccc(OCC(=O)O)cc2)ccc(C(C)=O)c1O | inconclusive: 1.26 µM [activator, single point] |  |
| CS(=O)(=O)N(CC(=O)N1CCCCC1)c1cccc(F)c1 |  | inactive: -7.34% |
| C[C@H](CO)N1C[C@H](C)[C@@H](CN(C)S(=O)(=O)c2cn(C)cn2)Oc2c(NS(=O)(=O)c3cn(C)cn3)cccc2C1=O |  | inactive: 1.98% |
| COc1ccc(CNCCC(c2ccc(OC(C)C)cc2)C(C)C)cc1OC (stereo not given) | inconclusive: 18.4 µM [activator, single point] |  |
| Cc1ccc(-n2nc(C)c3c(-c4cccs4)c(C#N)c(N)nc32)cc1 | inconclusive: 25.9 µM [activator, partial curve, poor fit] |  |
| COc1ccc([C@H]2CC(=O)C=C(c3ccc(OC)cc3OC)C2)cc1 | active: 13 µM |  |
| Cc1ccc(/C=N/n2c(-c3cccnc3)n[nH]c2=S)s1 |  | inactive: 0.402% |
| CCOC(=O)C1=C(C)N(C)C(C)=C(C(=O)OCC)C1c1ccc(Cl)cc1 | inconclusive: 18.4 µM [activator, partial curve, poor fit] |  |
| CCCOc1ccc(NCC(=O)Nc2ccc(C)cc2C)cc1 | inconclusive: 29.1 µM [activator, single point] |  |
| Cc1ccccc1Cn1c2ccccc2c2cnn(CC(=O)N3CCN(c4ccccc4)CC3)c(=O)c21 |  | inactive: 1% |
| COc1ccc(C(=O)/C=C2/C(=O)Nc3ccccc32)cc1OC | inconclusive: 20.6 µM [activator, partial curve, poor fit] |  |
| CC(=O)c1ccc(S(=O)(=O)N(C)CC(=O)Nc2cc(C)on2)cc1 |  | inactive: -25.4% |
| O=C(Nc1ccc(-c2n[nH]c(=S)o2)cc1)c1ccccc1Br |  | inactive: -0.527% |

| Structure (SMILES) | Potency | re-replication activation |
| --- | --- | --- |
| CCOc1cc(CNCCSc2nnnn2C)cc(Br)c1OCc1ccccc1F | inconclusive: 29.1 µM [activator, single point] |  |
| CCN(CC)c1ccc2cc(C(C)=O)c(=O)oc2c1 | active: 20.6 µM |  |
| CCN=C1S/C(=C\c2ccc(Sc3ccc(Cl)cc3)o2)C(=O)N1CC | inconclusive: 9.2 µM [activator, partial curve] |  |
| CCN(CC)CCn1c(=N)n(CC(O)c2ccco2)c2ccccc21 (stereo not given) |  | inactive: -156% |
| COc1ccc([C@H]2CC(=O)C=C(c3cc(F)ccc3OC)C2)cc1 | inconclusive: 14.6 µM [activator, single point] |  |
| COc1cccc(Oc2cn[nH]c2-c2ccc(OC)cc2O)c1 | inconclusive: 18.4 µM [activator, single point] |  |
| CCOC(=O)c1sc2nc(C)nc(SCC(=O)N(CC)C3CCS(=O)(=O)C3)c2c1C (stereo not given) | inconclusive: 4.11 µM [activator, full curve] |  |
| COC(=O)Cn1c(=O)c2c(n(Cc3ccccc3)c1=O)N/C(=C/c1ccc(Br)cc1)C2=O | inconclusive: 29.1 µM [activator, single point] |  |
| NNc1nc2ccc(Cl)cc2s1 | inconclusive: 18.4 µM [activator, single point] |  |
| O=S(=O)(Nc1cccc(-c2nc3cccnc3s2)c1)c1cccs1 | inconclusive: 0.58 µM [activator, full curve, poor fit] |  |
| O=C(c1ccccc1)N1CCc2[nH]nc(-c3ccccc3)c2C1 | inconclusive: 7.31 µM [activator, single point] |  |
| CN(C)CCNC(=O)/C(=C/c1ccc(-c2cccc([N+](=O)[O-])c2)o1)NC(=O)c1ccccc1 | inconclusive: 29.1 µM [activator, single point] |  |
| COc1ccccc1/C=C/C=N/NC(=O)Cc1cccn1C | inconclusive: 6.51 µM [activator, partial curve, poor fit] |  |
| Cc1ccn2c(NC3CCCCC3)c(-c3cccc(SC4CCCCC4)c3)nc2c1 | inconclusive: 3.26 µM [activator, partial curve, poor fit] |  |
| Oc1ccc(CNc2ccccc2)c2cccnc12 | inconclusive: 29.1 µM [activator, single point] |  |
| CCNC(=O)C12CCC(C)(C(=O)C1Br)C2(C)C (stereo not given) |  | inactive: -6.7% |
| COc1cc(CNc2ccc(N3CCCC3)cc2)cc(Cl)c1OC | inconclusive: 4.11 µM [activator, single point] |  |
| COc1ccc(NC(=S)NCCCc2ccccc2)cc1 | active: 18.4 µM |  |
| COc1cccc(-c2nnc3n2N=C(C(C)(C)C)CS3)c1 | inconclusive: 4.61 µM [activator, single point] |  |
| O=C(NNc1ccccn1)C(c1ccccc1)c1ccccc1 |  | inactive: 7.17% |
| Cc1cccc(N2CN(Cc3cccnc3)CNC2=S)c1C | inconclusive: 29.1 µM [activator, single point] |  |
| Cc1cccn2c(=O)c(-c3nnn[nH]3)cnc12 |  | inactive: -4.01% |

Ordered by SMILES length (descending): 3 of the compounds above

| Structure (SMILES) | Potency | re-replication activation |
| --- | --- | --- |
| CCCc1c(OCCCOc2ccc(OCC(=O)O)cc2)ccc(C(C)=O)c1O | inconclusive: 1.26 µM [activator, single point] |  |
| CCNC(=O)C12CCC(C)(C(=O)C1Br)C2(C)C (stereo not given) |  | inactive: -6.7% |
| CCOc1nc(-c2ccccc2)c2cc(Br)ccc2n1 |  | inactive: -8.74% |
